These are yes or no findings as the source states them, for the method shown. In cells and extracts the contact can be indirect. Some results given as binding are weak or reduced against the parent protein; the word gives no strength.
Biological target: HEXIM1 (human (endogenous in HCT116)) (UniProt O94992)
Test: co-IP; anti-HEXIM1 antibody on Dynabeads Protein G incubated overnight at 4 °C with whole-cell extracts of HCT116 or HCT116 CDK12as/as cells (lysis buffer C: 20 mM Tris-HCl, 0.5% NP-40, 150 mM NaCl, 1.5 mM MgCl2, 10 mM KCl, 10% glycerol, 0.5 mM EDTA, pH 7.9); CDK9 and HEXIM1 detected by Western …; cells treated beforehand with DMSO, THZ531 (300 or 400 nM), THZ532 (400 nM), 3-MB-PP1 or KU-60019 (5 μM)

By UniProt entry, the sequences of proteins in these tests, tags left out.
UniProt O94992: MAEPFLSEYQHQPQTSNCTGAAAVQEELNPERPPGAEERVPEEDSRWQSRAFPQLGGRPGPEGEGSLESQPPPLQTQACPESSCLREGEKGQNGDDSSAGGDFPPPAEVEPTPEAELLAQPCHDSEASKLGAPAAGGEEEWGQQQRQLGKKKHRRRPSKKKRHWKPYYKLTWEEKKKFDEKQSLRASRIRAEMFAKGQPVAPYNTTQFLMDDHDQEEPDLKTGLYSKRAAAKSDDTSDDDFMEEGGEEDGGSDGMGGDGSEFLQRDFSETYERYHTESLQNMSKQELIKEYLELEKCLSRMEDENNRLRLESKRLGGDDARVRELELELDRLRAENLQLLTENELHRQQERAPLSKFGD
UniProt P50750: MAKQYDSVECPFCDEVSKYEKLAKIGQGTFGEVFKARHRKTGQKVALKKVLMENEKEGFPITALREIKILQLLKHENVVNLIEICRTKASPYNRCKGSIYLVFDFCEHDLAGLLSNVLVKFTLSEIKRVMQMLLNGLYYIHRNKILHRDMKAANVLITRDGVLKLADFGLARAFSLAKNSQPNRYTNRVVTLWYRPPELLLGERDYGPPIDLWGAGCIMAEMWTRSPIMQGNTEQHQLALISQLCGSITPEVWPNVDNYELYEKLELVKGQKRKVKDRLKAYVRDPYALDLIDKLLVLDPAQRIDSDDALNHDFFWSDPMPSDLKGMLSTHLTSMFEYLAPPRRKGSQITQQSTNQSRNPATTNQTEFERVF

binding: binds
Substance: CDK9 (from UniProt P50750 1-372) (enzyme)

From article PMC10639066
